Laboratory results: PubChem BioAssay AID504764 (Drosophila RNAi Screening Center, 2011)
The deposit covers about 22,000 reagents; below is an unselected part of those with a known target gene and a result. Of all reagents, 403 (1.9%) are marked active. 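Unnormalised raw counts per well; ratio z-scores behind the hit calls and whether each hit raises or lowers signal are not deposited.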 Reagents against one gene are numbered here. Reagent sequences are not shown. The record does not give: the amount of reagent.

Aim: 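Genome-wide screen for regulators of Notch-driven gene expression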 (primary screen)
System: Drosophila Kc167 cells
Reagent: long dsRNA against Drosophila genes
Duration: about 5 days (4 days dsRNA, then 24 h after transfection)
Conditions: transfection of constitutively active membrane-tethered Notch lacking the extracellular domain, read 24 h later
Detection: 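Light from a Notch-responsive E(spl)m3 luciferase reporter under active Notch, with control-promoter and no-Notch reporter wells to normalise; raw counts from paired wells a and b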
Scale: induced reporter light, run 1, well a and induced reporter light, run 1, well b: higher = more light from the Notch target reporter with active Notch; control promoter light, run 1, well a and control promoter light, run 1, well b: higher = more light from the viral control promoter (cell number, transfection, viability); uninduced reporter light, run 1, well a: higher = more light from the Notch target reporter without active Notch
Rule for the call: 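Wells with low control signal or poorly matching duplicates excluded; duplicates averaged; per source plate, z beyond ±2 for induced/control log2 ratio or beyond ±1.8 for induced/uninduced marks a hit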
Calls: active = modifier hit (raised or lowered Notch signal); inactive = not a hit

| gene | reagent no. | induced reporter light, run 1, well a | induced reporter light, run 1, well b | control promoter light, run 1, well a | control promoter light, run 1, well b | uninduced reporter light, run 1, well a | outcome |
| --- | --- | --- | --- | --- | --- | --- | --- |
| Srp14 (Signal recognition particle 14) | 1 | 1.92e5 | 1.82e5 | 2.10e5 | 1.94e5 | 11592 | inactive |
| CG31740 | 1 | 63855 | 65260 | 74905 | 54690 | 5960 | inactive |
| CG31205 | 1 | 57060 | 40155 | 64365 | 57140 | 7640 | inactive |
| sra (sarah) | 1 | 2.33e5 | 2.00e5 | 2.26e5 | 2.37e5 | 18555 | inactive |
| ClC-b (Chloride channel-b) | 1 | 1.37e5 | 99055 | 1.31e5 | 1.43e5 | 8955 | inactive |
| Fife | 1 | 58735 | 52125 | 91480 | 74685 | 8050 | inactive |
| CG7606 | 1 | 73470 | 60135 | 84955 | 66840 | 8365 | inactive |
| CG7606 | 2 | 2.39e5 | 2.11e5 | 2.11e5 | 2.36e5 | 18885 | inactive |
| p38b (p38b MAP kinase) | 1 | 1.50e5 | 1.50e5 | 1.39e5 | 1.76e5 | 10350 | inactive |
| ATPsynO (ATP synthase, oligomycin sensitivity conferring protein) | 1 | 95505 | 82980 | 73425 | 66565 | 6415 | inactive |
| Lcp65Ad | 1 | 2.08e5 | 1.95e5 | 1.69e5 | 2.18e5 | 13655 | inactive |
| CG4617 | 1 | 1.66e5 | 1.32e5 | 1.87e5 | 1.88e5 | 9555 | inactive |
| NT5E-2 (Ecto-5'-nucleotidase 2) | 1 | 86330 | 83870 | 1.75e5 | 1.78e5 | 7440 | inactive |
| Ssl (Suppressor of Stellate-like) | 1 | 1.83e5 | 1.47e5 | 2.09e5 | 1.78e5 | 12565 | inactive |
| Cpr47Eb (Cuticular protein 47Eb) | 1 | 1.12e5 | 1.38e5 | 1.30e5 | 1.28e5 | 10235 | inactive |
| CG3713 | 1 | 1.49e5 | 1.50e5 | 2.46e5 | 2.05e5 | 10280 | inactive |
| CG7329 | 1 | 1.48e5 | 1.71e5 | 71520 | 1.18e5 | 21895 | inactive |
| CG42700 | 1 | 9380 | 7328 | 12675 | 8655 | 2340 | inactive |
| CG42700 | 2 | 1.13e5 | 1.10e5 | 1.01e5 | 1.11e5 | 9040 | inactive |

4 entries already listed, ordered by “induced reporter light, run 1, well b”, ascending.
| gene | reagent no. | induced reporter light, run 1, well a | induced reporter light, run 1, well b | control promoter light, run 1, well a | control promoter light, run 1, well b | uninduced reporter light, run 1, well a | outcome |
| --- | --- | --- | --- | --- | --- | --- | --- |
| ATPsynO (ATP synthase, oligomycin sensitivity conferring protein) | 1 | 95505 | 82980 | 73425 | 66565 | 6415 | inactive |
| CG4617 | 1 | 1.66e5 | 1.32e5 | 1.87e5 | 1.88e5 | 9555 | inactive |
| p38b (p38b MAP kinase) | 1 | 1.50e5 | 1.50e5 | 1.39e5 | 1.76e5 | 10350 | inactive |
| Lcp65Ad | 1 | 2.08e5 | 1.95e5 | 1.69e5 | 2.18e5 | 13655 | inactive |

Additional entries follow.
| gene | reagent no. | induced reporter light, run 1, well a | induced reporter light, run 1, well b | control promoter light, run 1, well a | control promoter light, run 1, well b | uninduced reporter light, run 1, well a | outcome |
| --- | --- | --- | --- | --- | --- | --- | --- |
| lsn (larsen) | 1 | 1.51e5 | 1.18e5 | 1.78e5 | 1.24e5 | 9900 | inactive |
| Cpr78Cc (Cuticular protein 78Cc) | 1 | 1.00e5 | 90820 | 87000 | 1.06e5 | 4955 | inactive |
| CG33978 | 1 | 49325 | 58655 | 68840 | 73925 | 5140 | inactive |
| cad (caudal) | 1 | 33360 | 33740 | 6875 | 7370 | 6688 | inactive |
| Ssl1 (Suppressor of stem-loop mutation) | 1 | 1.40e5 | 1.35e5 | 1.14e5 | 1.20e5 | 10300 | inactive |
| Lztr1 (Leucine zipper like transcription regulator 1) | 1 | 93805 | 1.09e5 | 1.96e5 | 2.05e5 | 9250 | inactive |
| Lztr1 (Leucine zipper like transcription regulator 1) | 2 | 1.13e5 | 1.09e5 | 1.89e5 | 2.60e5 | 8135 | inactive |
| FucTA (alpha1,3-fucosyltransferase A) | 1 | 79635 | 54625 | 77410 | 50325 | 7980 | inactive |
| CG13220 | 1 | 1.21e5 | 1.35e5 | 1.59e5 | 1.33e5 | 11660 | inactive |
| Cpr49Aa (Cuticular protein 49Aa) | 1 | 94320 | 91570 | 1.21e5 | 1.12e5 | 7980 | inactive |
| wor (worniu) | 1 | 1.25e5 | 1.18e5 | 1.36e5 | 1.68e5 | 10235 | inactive |
| CG17683 | 1 | 98705 | 86640 | 82155 | 1.16e5 | 9035 | inactive |
| CG4884 | 1 | 2.52e5 | 1.63e5 | 2.40e5 | 2.31e5 | 17970 | inactive |
| GstD5 (Glutathione S transferase D5) | 1 | 27230 | 30970 | 26920 | 21450 | 1325 | inactive |
| croc (crocodile) | 1 | 1.46e5 | 1.14e5 | 1.15e5 | 99175 | 9675 | inactive |
